Amino acid sequences for entries named in this document (tags omitted). A change or cut given only in a name is not applied to a line headed by its entry.
UniProt Q9ES97: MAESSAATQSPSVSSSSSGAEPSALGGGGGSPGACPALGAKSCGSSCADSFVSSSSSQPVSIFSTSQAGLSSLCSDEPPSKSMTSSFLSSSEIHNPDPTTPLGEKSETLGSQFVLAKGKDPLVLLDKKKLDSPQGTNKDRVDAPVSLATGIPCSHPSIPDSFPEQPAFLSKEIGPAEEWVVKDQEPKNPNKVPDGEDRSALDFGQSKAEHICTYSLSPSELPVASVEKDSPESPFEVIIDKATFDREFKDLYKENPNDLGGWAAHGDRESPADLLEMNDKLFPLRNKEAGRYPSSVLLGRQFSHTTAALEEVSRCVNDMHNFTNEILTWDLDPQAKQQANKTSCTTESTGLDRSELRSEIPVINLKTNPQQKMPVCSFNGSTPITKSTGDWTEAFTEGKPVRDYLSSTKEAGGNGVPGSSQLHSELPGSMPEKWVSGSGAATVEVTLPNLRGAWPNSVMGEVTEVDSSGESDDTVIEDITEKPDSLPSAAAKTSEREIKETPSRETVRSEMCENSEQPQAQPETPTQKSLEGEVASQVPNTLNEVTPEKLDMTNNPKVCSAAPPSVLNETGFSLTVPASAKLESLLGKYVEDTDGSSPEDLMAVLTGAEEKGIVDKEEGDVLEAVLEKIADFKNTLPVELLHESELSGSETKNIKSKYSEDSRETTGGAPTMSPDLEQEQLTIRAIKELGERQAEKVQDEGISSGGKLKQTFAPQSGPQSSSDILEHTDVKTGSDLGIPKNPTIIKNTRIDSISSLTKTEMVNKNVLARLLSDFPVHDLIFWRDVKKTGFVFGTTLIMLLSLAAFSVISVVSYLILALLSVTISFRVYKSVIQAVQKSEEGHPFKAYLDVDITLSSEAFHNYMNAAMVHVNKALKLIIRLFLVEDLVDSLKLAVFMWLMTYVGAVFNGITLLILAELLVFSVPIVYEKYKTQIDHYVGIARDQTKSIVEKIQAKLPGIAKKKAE

According to PMC9166791:

Biological target: Reticulon 3 (RTN3) (mouse (endogenous in renal tubular epithelial cells of WT mice)) (UniProt Q9ES97)
Assay: affinity purification with mass spectrometry; co-IP from total proteins of renal tubular epithelial cells of WT mice, followed by mass spectrometric analysis

B1: GC-Rich Promoter Binding Protein 1 (GPBP1) (protein, UniProt Q6NXH3 1-473)
chain: MAQHDFAPAWLNFPTPPSSTKSSLNFEKHSENFSWTENRYDVSRRRHNSSDGFDSGIGRPNGGNFGRKEKNGWRTHGRNGTENINHRGGYHGGNSRSRSSIFHSGKSQGLHENSIPDNETGRKEDKRERRQFEAEDFPSLNPEYEREPNQNKSLAAGVWDYPPNPKSRTPRMLVIKKGNTKDLQLSGFPVAGNLQSQPVKNGTGPSVYKGLVPKPAVPPTKPTQWKSQTKENKVGTSFSHESTYGVGNFNTFKSTAKNISPSTNSVKECNRSNSSSPVDKLNQQPRLTKLTRMRSDKKSEFLKALKRDRVEEEHEDESHAGSEKDDDSFNLHNSNTTHQERDINRNFDENEIPQENGNASMISQQIIRSSTFPQTDVLSSSLEAEHRLLKEMGWQEDSENDETCAPLTEDEMREFQVISEQLQKNGLRKNGILKNGLICDFKFGPWKNSTFKPTIENDDTETSSSDTSDDDDV
binding: binds

Results are given in words; binding and its absence hold for the method and conditions named. Binding seen in cells or lysates may run through a third protein. These calls come from enrichment with a bait or labelling near it, and not all partners need be listed.
